Data as given in PubChem BioAssay AID1508597 (Cure First, 2020)
The deposit covers about 2,100 reagents; shown is a part drawn at random. 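Calls flag viability under 80% in either arm, not effects specific to rucaparib; the reference for percent is not stated.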 Unmarked entries are inactive. Some reagents were tested in more than one well and are listed for each. Not stated in the record: the 100% reference.

Test: 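Genes whose silencing sensitises or protects ovarian cancer cells against rucaparib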 (primary screen)
Cells: human ovarian carcinoma lines grown from tumours: OCI-P5x (papillary serous) and OCI-C5x (clear cell)
Reagents: siRNA pool against human genes, 1.25 pmol siRNA per well
Time to read-out: 72 h or 96 h, depending on the cell culture
Challenge: rucaparib 20 µM (about IC30) or vehicle, present until read-out
Measurement: 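Luminescent ATP-based viability assay read 72 or 96 h after transfection, depending on culture, given as normalised percent viability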
Direction: viability, normalised: higher = more viable cells remaining
Hit rule: 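a well counts as a hit if its normalised viability is under 80 percent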
Calls: active = viability under 80%; inactive = viability 80% or more

gene	rucaparib or vehicle	cell line	technical replicate	viability, normalised (%)
BMPR1A (bone morphogenetic protein receptor type 1A)	Rucaparib	OCI-C5x (clear cell)	1	56.2 (active)
BMPR1A (bone morphogenetic protein receptor type 1A)	Rucaparib	OCI-C5x (clear cell)	1	52.1 (active)
BMPR1A (bone morphogenetic protein receptor type 1A)	Rucaparib	OCI-C5x (clear cell)	2	50.5 (active)
BMPR1A (bone morphogenetic protein receptor type 1A)	Rucaparib	OCI-C5x (clear cell)	2	70 (active)
BMPR1A (bone morphogenetic protein receptor type 1A)	Rucaparib	OCI-C5x (clear cell)	3	55.2 (active)
BMPR1A (bone morphogenetic protein receptor type 1A)	Rucaparib	OCI-C5x (clear cell)	3	57 (active)
BMPR1A (bone morphogenetic protein receptor type 1A)	Rucaparib	OCI-P5x (serous)	1	86
BMPR1A (bone morphogenetic protein receptor type 1A)	Rucaparib	OCI-P5x (serous)	1	56.3 (active)
BMPR1A (bone morphogenetic protein receptor type 1A)	Rucaparib	OCI-P5x (serous)	2	59.1 (active)
BMPR1A (bone morphogenetic protein receptor type 1A)	Rucaparib	OCI-P5x (serous)	2	77.1 (active)
BMPR1A (bone morphogenetic protein receptor type 1A)	Rucaparib	OCI-P5x (serous)	3	91.5
BMPR1A (bone morphogenetic protein receptor type 1A)	Rucaparib	OCI-P5x (serous)	3	62.7 (active)
BMPR1A (bone morphogenetic protein receptor type 1A)	Vehicle	OCI-C5x (clear cell)	1	53.3 (active)
BMPR1A (bone morphogenetic protein receptor type 1A)	Vehicle	OCI-C5x (clear cell)	1	82.9
BMPR1A (bone morphogenetic protein receptor type 1A)	Vehicle	OCI-C5x (clear cell)	2	70.5 (active)
BMPR1A (bone morphogenetic protein receptor type 1A)	Vehicle	OCI-C5x (clear cell)	2	37.9 (active)
BMPR1A (bone morphogenetic protein receptor type 1A)	Vehicle	OCI-C5x (clear cell)	3	45.2 (active)
BMPR1A (bone morphogenetic protein receptor type 1A)	Vehicle	OCI-C5x (clear cell)	3	46.4 (active)
BMPR1A (bone morphogenetic protein receptor type 1A)	Vehicle	OCI-P5x (serous)	1	61.3 (active)
BMPR1A (bone morphogenetic protein receptor type 1A)	Vehicle	OCI-P5x (serous)	1	102
BMPR1A (bone morphogenetic protein receptor type 1A)	Vehicle	OCI-P5x (serous)	2	57.7 (active)
BMPR1A (bone morphogenetic protein receptor type 1A)	Vehicle	OCI-P5x (serous)	2	68.6 (active)
BMPR1A (bone morphogenetic protein receptor type 1A)	Vehicle	OCI-P5x (serous)	3	74.4 (active)
BMPR1A (bone morphogenetic protein receptor type 1A)	Vehicle	OCI-P5x (serous)	3	94.8
MCM2 (minichromosome maintenance complex component 2)	Rucaparib	OCI-C5x (clear cell)	1	55.7 (active)
MCM2 (minichromosome maintenance complex component 2)	Rucaparib	OCI-C5x (clear cell)	2	59.1 (active)
MCM2 (minichromosome maintenance complex component 2)	Rucaparib	OCI-C5x (clear cell)	3	54.4 (active)
MCM2 (minichromosome maintenance complex component 2)	Rucaparib	OCI-P5x (serous)	1	59.4 (active)
MCM2 (minichromosome maintenance complex component 2)	Rucaparib	OCI-P5x (serous)	2	44.4 (active)
MCM2 (minichromosome maintenance complex component 2)	Rucaparib	OCI-P5x (serous)	3	47.2 (active)
MCM2 (minichromosome maintenance complex component 2)	Vehicle	OCI-C5x (clear cell)	1	52 (active)
MCM2 (minichromosome maintenance complex component 2)	Vehicle	OCI-C5x (clear cell)	2	55.5 (active)
MCM2 (minichromosome maintenance complex component 2)	Vehicle	OCI-C5x (clear cell)	3	49.9 (active)
MCM2 (minichromosome maintenance complex component 2)	Vehicle	OCI-P5x (serous)	1	59.5 (active)
MCM2 (minichromosome maintenance complex component 2)	Vehicle	OCI-P5x (serous)	2	34.3 (active)
MCM2 (minichromosome maintenance complex component 2)	Vehicle	OCI-P5x (serous)	3	45.5 (active)
ERCC5 (ERCC excision repair 5, endonuclease)	Rucaparib	OCI-C5x (clear cell)	1	44.1 (active)
ERCC5 (ERCC excision repair 5, endonuclease)	Rucaparib	OCI-C5x (clear cell)	2	62.9 (active)
ERCC5 (ERCC excision repair 5, endonuclease)	Rucaparib	OCI-C5x (clear cell)	3	58.6 (active)
ERCC5 (ERCC excision repair 5, endonuclease)	Rucaparib	OCI-P5x (serous)	1	105
ERCC5 (ERCC excision repair 5, endonuclease)	Rucaparib	OCI-P5x (serous)	2	97.7
ERCC5 (ERCC excision repair 5, endonuclease)	Rucaparib	OCI-P5x (serous)	3	77.4 (active)
ERCC5 (ERCC excision repair 5, endonuclease)	Vehicle	OCI-C5x (clear cell)	1	56.5 (active)
ERCC5 (ERCC excision repair 5, endonuclease)	Vehicle	OCI-C5x (clear cell)	2	55.6 (active)
ERCC5 (ERCC excision repair 5, endonuclease)	Vehicle	OCI-C5x (clear cell)	3	58.3 (active)
ERCC5 (ERCC excision repair 5, endonuclease)	Vehicle	OCI-P5x (serous)	1	69.4 (active)
ERCC5 (ERCC excision repair 5, endonuclease)	Vehicle	OCI-P5x (serous)	2	64 (active)
ERCC5 (ERCC excision repair 5, endonuclease)	Vehicle	OCI-P5x (serous)	3	66.6 (active)
PDGFRB (platelet derived growth factor receptor beta)	Rucaparib	OCI-C5x (clear cell)	1	49.6 (active)
PDGFRB (platelet derived growth factor receptor beta)	Rucaparib	OCI-C5x (clear cell)	2	51.3 (active)
PDGFRB (platelet derived growth factor receptor beta)	Rucaparib	OCI-C5x (clear cell)	3	71.3 (active)
PDGFRB (platelet derived growth factor receptor beta)	Rucaparib	OCI-P5x (serous)	1	88.1
PDGFRB (platelet derived growth factor receptor beta)	Rucaparib	OCI-P5x (serous)	2	94.3
PDGFRB (platelet derived growth factor receptor beta)	Rucaparib	OCI-P5x (serous)	3	80.3
PDGFRB (platelet derived growth factor receptor beta)	Vehicle	OCI-C5x (clear cell)	1	56.4 (active)
PDGFRB (platelet derived growth factor receptor beta)	Vehicle	OCI-C5x (clear cell)	2	53 (active)
PDGFRB (platelet derived growth factor receptor beta)	Vehicle	OCI-C5x (clear cell)	3	61.7 (active)
PDGFRB (platelet derived growth factor receptor beta)	Vehicle	OCI-P5x (serous)	1	77.5 (active)
PDGFRB (platelet derived growth factor receptor beta)	Vehicle	OCI-P5x (serous)	2	77.1 (active)
PDGFRB (platelet derived growth factor receptor beta)	Vehicle	OCI-P5x (serous)	3	80.9
RAD51 (RAD51 recombinase)	Rucaparib	OCI-C5x (clear cell)	1	55.2 (active)
RAD51 (RAD51 recombinase)	Rucaparib	OCI-C5x (clear cell)	2	51.8 (active)
RAD51 (RAD51 recombinase)	Rucaparib	OCI-C5x (clear cell)	3	59.3 (active)
RAD51 (RAD51 recombinase)	Rucaparib	OCI-P5x (serous)	1	90.1
RAD51 (RAD51 recombinase)	Rucaparib	OCI-P5x (serous)	2	84
RAD51 (RAD51 recombinase)	Rucaparib	OCI-P5x (serous)	3	88.8
RAD51 (RAD51 recombinase)	Vehicle	OCI-C5x (clear cell)	1	38.2 (active)
RAD51 (RAD51 recombinase)	Vehicle	OCI-C5x (clear cell)	2	55.7 (active)
RAD51 (RAD51 recombinase)	Vehicle	OCI-C5x (clear cell)	3	45.7 (active)
RAD51 (RAD51 recombinase)	Vehicle	OCI-P5x (serous)	1	67.9 (active)
RAD51 (RAD51 recombinase)	Vehicle	OCI-P5x (serous)	2	81.8
RAD51 (RAD51 recombinase)	Vehicle	OCI-P5x (serous)	3	61.7 (active)
CDK3 (cyclin dependent kinase 3)	Rucaparib	OCI-C5x (clear cell)	1	50.6 (active)
CDK3 (cyclin dependent kinase 3)	Rucaparib	OCI-C5x (clear cell)	2	51.7 (active)
CDK3 (cyclin dependent kinase 3)	Rucaparib	OCI-C5x (clear cell)	3	56.6 (active)
CDK3 (cyclin dependent kinase 3)	Rucaparib	OCI-P5x (serous)	1	114
CDK3 (cyclin dependent kinase 3)	Rucaparib	OCI-P5x (serous)	2	108
CDK3 (cyclin dependent kinase 3)	Rucaparib	OCI-P5x (serous)	3	105
CDK3 (cyclin dependent kinase 3)	Vehicle	OCI-C5x (clear cell)	1	64 (active)
CDK3 (cyclin dependent kinase 3)	Vehicle	OCI-C5x (clear cell)	2	60.3 (active)
CDK3 (cyclin dependent kinase 3)	Vehicle	OCI-C5x (clear cell)	3	57.1 (active)
CDK3 (cyclin dependent kinase 3)	Vehicle	OCI-P5x (serous)	1	106
CDK3 (cyclin dependent kinase 3)	Vehicle	OCI-P5x (serous)	2	97.6
CDK3 (cyclin dependent kinase 3)	Vehicle	OCI-P5x (serous)	3	107

An excerpt from the list above, as a working copy:
gene	rucaparib or vehicle	cell line	technical replicate	viability, normalised (%)
BMPR1A (bone morphogenetic protein receptor type 1A)	Vehicle	OCI-C5x (clear cell)	1	53.3 (active)
BMPR1A (bone morphogenetic protein receptor type 1A)	Vehicle	OCI-C5x (clear cell)	1	82.9
BMPR1A (bone morphogenetic protein receptor type 1A)	Vehicle	OCI-C5x (clear cell)	2	70.5 (active)
BMPR1A (bone morphogenetic protein receptor type 1A)	Vehicle	OCI-C5x (clear cell)	2	37.9 (active)
BMPR1A (bone morphogenetic protein receptor type 1A)	Vehicle	OCI-C5x (clear cell)	3	45.2 (active)
